Eight substances from PMC6430605 can be followed below.

Chains of the proteins cited; added tags and fusions are not shown. Lines headed by an entry give the natural chain unless they say otherwise; changes in a name come on top.
UniProt Q7KJM7: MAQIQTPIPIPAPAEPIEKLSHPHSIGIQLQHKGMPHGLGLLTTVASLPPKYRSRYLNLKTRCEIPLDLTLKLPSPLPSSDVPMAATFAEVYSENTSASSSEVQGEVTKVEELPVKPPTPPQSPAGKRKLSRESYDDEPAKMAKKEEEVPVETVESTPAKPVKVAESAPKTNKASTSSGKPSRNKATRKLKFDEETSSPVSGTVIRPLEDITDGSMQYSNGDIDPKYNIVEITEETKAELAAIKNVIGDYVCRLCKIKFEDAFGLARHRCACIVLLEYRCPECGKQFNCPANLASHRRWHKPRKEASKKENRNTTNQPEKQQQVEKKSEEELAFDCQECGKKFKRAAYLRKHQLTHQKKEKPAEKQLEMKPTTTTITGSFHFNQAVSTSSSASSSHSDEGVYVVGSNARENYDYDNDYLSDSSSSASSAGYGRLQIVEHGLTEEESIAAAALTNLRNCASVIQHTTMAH
UniProt O46036: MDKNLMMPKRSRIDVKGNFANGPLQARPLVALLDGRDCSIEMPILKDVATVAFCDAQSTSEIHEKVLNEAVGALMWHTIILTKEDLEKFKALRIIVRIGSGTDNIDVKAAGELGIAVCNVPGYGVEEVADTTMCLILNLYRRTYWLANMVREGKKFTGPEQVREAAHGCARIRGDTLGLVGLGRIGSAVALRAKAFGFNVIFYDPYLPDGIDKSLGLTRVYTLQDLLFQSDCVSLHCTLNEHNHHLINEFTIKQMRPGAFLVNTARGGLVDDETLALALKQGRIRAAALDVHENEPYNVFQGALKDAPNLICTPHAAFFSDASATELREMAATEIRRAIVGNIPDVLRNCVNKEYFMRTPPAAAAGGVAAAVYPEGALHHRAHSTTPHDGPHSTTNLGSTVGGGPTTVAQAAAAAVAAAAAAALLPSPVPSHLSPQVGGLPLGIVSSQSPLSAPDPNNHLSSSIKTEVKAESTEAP
UniProt P30052: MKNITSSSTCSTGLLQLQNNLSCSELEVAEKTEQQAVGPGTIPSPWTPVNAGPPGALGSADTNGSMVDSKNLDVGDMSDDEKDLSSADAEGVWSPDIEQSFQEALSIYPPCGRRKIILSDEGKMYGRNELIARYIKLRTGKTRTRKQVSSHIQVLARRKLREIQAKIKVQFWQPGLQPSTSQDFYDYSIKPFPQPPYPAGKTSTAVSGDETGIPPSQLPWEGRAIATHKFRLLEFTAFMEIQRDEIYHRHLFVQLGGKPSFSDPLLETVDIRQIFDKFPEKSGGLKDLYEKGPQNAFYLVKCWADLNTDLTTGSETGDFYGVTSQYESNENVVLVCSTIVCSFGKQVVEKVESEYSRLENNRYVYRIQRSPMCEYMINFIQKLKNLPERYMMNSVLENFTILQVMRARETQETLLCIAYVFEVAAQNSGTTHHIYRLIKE
UniProt Q94517: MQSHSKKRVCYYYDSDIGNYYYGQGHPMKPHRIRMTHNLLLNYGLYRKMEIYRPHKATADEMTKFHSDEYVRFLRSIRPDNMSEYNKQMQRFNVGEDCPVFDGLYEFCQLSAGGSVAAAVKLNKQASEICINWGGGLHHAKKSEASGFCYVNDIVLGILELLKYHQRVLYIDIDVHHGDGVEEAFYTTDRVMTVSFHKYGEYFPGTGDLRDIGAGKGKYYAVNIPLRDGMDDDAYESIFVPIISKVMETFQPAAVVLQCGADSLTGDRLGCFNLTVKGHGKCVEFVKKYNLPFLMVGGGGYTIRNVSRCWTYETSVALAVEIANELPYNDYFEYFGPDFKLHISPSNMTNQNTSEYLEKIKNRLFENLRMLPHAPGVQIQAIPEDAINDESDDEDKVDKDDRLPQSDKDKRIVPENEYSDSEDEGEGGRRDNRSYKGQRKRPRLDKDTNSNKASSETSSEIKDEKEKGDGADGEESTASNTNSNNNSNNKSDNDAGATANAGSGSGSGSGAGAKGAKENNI

No constants are given. Whether binding was seen depends on the method and setting. Binding seen in cells or lysates may run through a third protein. A result given as binding can be weak or reduced; the word gives no strength.

This experiment has as its target FLAG-Nerfin-1 (Drosophila) (UniProt Q7KJM7). The experiment can be described thus: co-IP; Drosophila S2R+ cells transfected with epitope-tagged constructs, IP by anti-FLAG.

As to “CtBP (epitope-tagged) (from UniProt O46036 1-476)”, the binding entry is recorded as “binds”.

Regarding Myc-Sd (from UniProt P30052 1-440), the binding entry was “binds”.

Turning to “Rpd3 (epitope-tagged) (from UniProt Q94517 1-521) (enzyme)”, the binding result is given as “binds”.

For “Sd^D120N/E121N (from UniProt P30052 1-440)”, the binding entry is “binds”.

Turning to Sd^L130G (from UniProt P30052 1-440), the binding result is recorded as “no binding”.

With Sd^Q153A (from UniProt P30052 1-440), the binding entry is listed as “binds”.

With Sd^R157A (from UniProt P30052 1-440), the binding result is “binds”.

As for Sd^Y108A (from UniProt P30052), the binding result is reported as “no binding”.
